{
  "sequences": {"note": "The chains behind the UniProt entries cited, without tags or fusion partners. Where a name states a change or a piece, a line headed by the entry shows the natural chain unless it says otherwise.", "UniProt Q9QUM0": "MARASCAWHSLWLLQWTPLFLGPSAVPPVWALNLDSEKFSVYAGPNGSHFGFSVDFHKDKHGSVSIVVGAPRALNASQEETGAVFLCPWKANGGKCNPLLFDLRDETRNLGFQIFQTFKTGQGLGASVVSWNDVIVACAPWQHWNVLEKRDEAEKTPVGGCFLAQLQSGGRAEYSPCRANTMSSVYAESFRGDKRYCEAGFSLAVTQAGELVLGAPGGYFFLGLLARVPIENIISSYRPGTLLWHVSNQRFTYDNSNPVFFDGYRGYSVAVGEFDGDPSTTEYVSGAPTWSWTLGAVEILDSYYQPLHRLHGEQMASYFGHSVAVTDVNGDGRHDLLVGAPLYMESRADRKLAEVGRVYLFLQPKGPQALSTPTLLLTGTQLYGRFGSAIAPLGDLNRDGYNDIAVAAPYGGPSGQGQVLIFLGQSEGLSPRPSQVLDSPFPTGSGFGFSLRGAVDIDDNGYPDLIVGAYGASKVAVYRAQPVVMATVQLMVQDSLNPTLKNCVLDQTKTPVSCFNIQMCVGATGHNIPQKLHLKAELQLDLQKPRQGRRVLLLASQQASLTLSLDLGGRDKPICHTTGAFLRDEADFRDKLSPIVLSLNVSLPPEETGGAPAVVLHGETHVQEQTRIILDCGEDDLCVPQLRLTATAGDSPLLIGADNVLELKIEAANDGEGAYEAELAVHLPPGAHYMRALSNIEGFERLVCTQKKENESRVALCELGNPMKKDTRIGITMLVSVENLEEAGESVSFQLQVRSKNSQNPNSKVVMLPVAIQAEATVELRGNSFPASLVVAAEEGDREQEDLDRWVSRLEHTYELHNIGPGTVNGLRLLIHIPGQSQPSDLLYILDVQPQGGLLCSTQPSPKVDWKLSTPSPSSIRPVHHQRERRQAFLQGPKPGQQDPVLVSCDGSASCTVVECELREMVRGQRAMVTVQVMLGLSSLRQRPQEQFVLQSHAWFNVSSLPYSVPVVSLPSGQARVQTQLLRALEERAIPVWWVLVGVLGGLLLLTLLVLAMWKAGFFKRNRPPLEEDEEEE", "UniProt O54890": "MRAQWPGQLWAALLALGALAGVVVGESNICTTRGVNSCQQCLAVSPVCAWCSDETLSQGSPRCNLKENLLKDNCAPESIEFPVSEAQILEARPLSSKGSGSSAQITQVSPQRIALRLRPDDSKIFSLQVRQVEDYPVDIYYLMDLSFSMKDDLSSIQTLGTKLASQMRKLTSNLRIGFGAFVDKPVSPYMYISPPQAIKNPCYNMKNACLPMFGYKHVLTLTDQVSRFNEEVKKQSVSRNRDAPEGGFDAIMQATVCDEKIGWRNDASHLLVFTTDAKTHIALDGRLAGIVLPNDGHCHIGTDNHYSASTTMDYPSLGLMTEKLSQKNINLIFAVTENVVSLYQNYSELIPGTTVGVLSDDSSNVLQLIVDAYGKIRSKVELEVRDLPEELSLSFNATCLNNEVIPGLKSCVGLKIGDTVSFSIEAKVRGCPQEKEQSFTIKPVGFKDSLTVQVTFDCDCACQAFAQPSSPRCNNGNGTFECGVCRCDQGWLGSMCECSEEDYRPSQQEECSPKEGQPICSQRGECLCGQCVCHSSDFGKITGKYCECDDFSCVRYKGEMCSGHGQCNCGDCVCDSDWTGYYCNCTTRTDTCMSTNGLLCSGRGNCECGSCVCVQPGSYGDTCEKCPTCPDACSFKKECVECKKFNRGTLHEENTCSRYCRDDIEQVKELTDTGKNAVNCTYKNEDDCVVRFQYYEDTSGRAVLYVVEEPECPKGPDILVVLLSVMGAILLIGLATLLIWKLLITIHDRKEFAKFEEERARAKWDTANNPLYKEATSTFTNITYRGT", "UniProt P02671": "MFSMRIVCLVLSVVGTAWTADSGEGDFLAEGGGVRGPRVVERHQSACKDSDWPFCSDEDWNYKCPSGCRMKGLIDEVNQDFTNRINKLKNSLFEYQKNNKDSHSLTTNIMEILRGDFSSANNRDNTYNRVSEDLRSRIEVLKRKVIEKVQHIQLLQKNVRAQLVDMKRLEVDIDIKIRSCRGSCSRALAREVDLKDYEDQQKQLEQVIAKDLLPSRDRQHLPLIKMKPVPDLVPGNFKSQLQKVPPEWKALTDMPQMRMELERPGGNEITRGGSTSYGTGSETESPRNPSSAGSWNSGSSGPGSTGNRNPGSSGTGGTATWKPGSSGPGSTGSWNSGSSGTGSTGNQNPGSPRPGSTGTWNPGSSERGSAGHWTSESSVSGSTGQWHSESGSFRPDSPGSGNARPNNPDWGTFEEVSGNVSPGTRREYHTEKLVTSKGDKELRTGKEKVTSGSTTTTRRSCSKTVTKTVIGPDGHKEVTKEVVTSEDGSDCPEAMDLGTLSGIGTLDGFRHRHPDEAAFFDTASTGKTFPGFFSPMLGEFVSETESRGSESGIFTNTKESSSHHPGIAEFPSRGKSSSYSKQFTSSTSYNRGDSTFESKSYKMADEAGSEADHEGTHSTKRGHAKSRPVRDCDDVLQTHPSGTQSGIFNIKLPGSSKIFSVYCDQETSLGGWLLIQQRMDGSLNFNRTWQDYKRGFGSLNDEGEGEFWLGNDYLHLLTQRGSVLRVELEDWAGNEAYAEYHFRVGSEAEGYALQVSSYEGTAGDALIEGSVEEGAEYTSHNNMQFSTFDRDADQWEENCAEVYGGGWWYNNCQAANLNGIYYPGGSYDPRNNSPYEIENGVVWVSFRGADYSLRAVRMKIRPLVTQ"},
  "source": "patent US20220347113A1",
  "target": "integrin αIIbβ3 (mouse, on platelets) (mouse) (UniProt Q9QUM0+O54890)",
  "test": "flow cytometry on PAR4AP-stimulated washed mouse platelets",
  "note": "These are yes or no findings as the source states them, for the method shown. Some binding calls cover weakened binding; strength is not graded here.",
  "data": [
    {"substance": "Oregon Green-conjugated fibrinogen (from UniProt P02671 20-629; P02675 31-491; P02679 27-437) (ligand)", "values": [
      {"measurement": "binding", "result": "binds"}
    ]}
  ]
}
